Experimental data as given in patent US7662961B2, “N-phenylpyrazole derivatives as pesticides” (Merial Limited, priority 2004, dated 2010).
Some entries share one result that the patent states for a list of compounds.

Test system: Ctenocephalides felis
Assay: Method A: screening method to test systemicity against Ctenocephalides felis (cat flea), artificial dog test with treated bovine blood
Assay type: in vivo
Details: test concentration of 5 ppm or less; in bovine blood; assessment at 24 and 48 hours after application; 10 adults

SMILES | control of Ctenocephalides felis
CN(C(=S)N(C)c1c([S+]([O-])C(F)(F)F)c(C#N)nn1-c1c(Cl)cc(C(F)(F)F)cc1Cl)c1c([S+]([O-])C(F)(F)F)c(C#N)nn1-c1c(Cl)cc(C(F)(F)F)cc1Cl (centres unmarked) [Compound 01-05, N,N′-Bis[3-cyano-1-(2,6-dichloro-4-trifluoromethylphenyl)-4-trifluoromethylsulfinylpyrazol-5-yl]-N,N′-dimethylthiourea] | at least 80%
N#Cc1nn(-c2c(Cl)cc(C(F)(F)F)cc2Cl)c(CNC(=O)OCCCOC(=O)NCc2c([S+]([O-])C(F)(F)F)c(C#N)nn2-c2c(Cl)cc(C(F)(F)F)cc2Cl)c1[S+]([O-])C(F)(F)F (centres unmarked) [Compound 06-41, Propane-1,3-diyl bis{[3-cyano-1-(2,6-dichloro-4-trifluoromethylphenyl)-4-trifluoromethylsulfinylpyrazol-5-yl]methylcarbamate}] | at least 80%
